Measured values as given in patent US20120251495A1, “PTERIN BASED THERAPIES FOR INFLAMMATORY CONDITIONS” (priority 2008, published 2012).

System: plasma cytokines
Experiment: Plasma cytokine levels by ELISA (LINCOplex), 1st experiment
Type: in vivo, athymic nude (nu/nu) mice
Conditions: ACIP stepwise regression
Experimental: Cytokine levels in EDTA plasma from the mice in the 1st experiment were determined by ELISA assay at Alta Analytical Laboratories (San Diego, Calif.) using a LINCOplex Kit (Linco Research). Tryptophan (Trp) and kynurenine (Kyn) concentrations were measured from EDTA plasma samples by high pressure liquid chromatography (HPLC) using 3-nitro-L-tyrosine as the internal standard (Widner et al., 1997). To estimate IDO activity, the kynurenine to tryptophan ratio (Kyn/Trp) was calculated and expressed as μmol kynurenine/mmol tryptophan (Wirleitner, 2003). The values from five mice in the 1st experiment are not included in the summary statistics given in Table 1 for the following reasons. One mouse from each of the four treatment groups was used to test the effects of mega dosing, i.e., with (1:4 mol:mol) calcium pterin at 100 mg/kg/day after Day 60 of treatment, and are excluded. Also excluded was one mouse from the (1:4 mol:mol) calcium pterin (7 mg/kg/day) group which expired suddenly a few days before blood was collected. Cytokine measurements <3.2 pg/ml are reported as n.d. (not detectable) because the standard curves used in the ELISA assays were not calibrated below that level.
Cytokine levels in EDTA plasma from the mice in the 1st experiment were determined by ELISA assay at Alta Analytical Laboratories (San Diego, Calif.) using a LINCOplex Kit (Linco Research).
Cytokine levels in EDTA plasma from the mice in the 2nd experiment were measured at the UCSD Core Laboratory (San Diego, Calif.) using a multiplex assay kit for IL-1β, IL-2, IL-4, IL-5, IL-10, IL-12, IFN-γ, TNF-α and single ELISA kits for IL-6 and TGF-β1 by R&D Systems. EDTA plasma samples from two of the three ungavaged controls were lost due to handling error. For both the 1st and 2nd experiments, those measured cytokine values falling below the limits of detection were set to the higher assay limit for the purposes of the subsequent statistical analyses, and recorded as n.d. (not detectable) in Tables 1 through 3.

(1:4 mol:mol) calcium pterin [CaPterin]
Regression Model Coefficient, dose versus Plasma IFN-γ: −3.16 | Regression Model Coefficient, dose versus Plasma IL-10: 0.31 | Standard Regression Coefficient, dose versus Plasma IFN-γ: −0.33 | Standard Regression Coefficient, dose versus Plasma IL-6: −0.98 | Standard Regression Coefficient, dose versus Plasma IL-10: 1.54 | Regression Model Coefficient, dose versus Plasma IL-6 (p = .047): −0.096
